Data reported in patent US9951024B2, “Small-molecule inhibitors targeting G-protein-coupled Rho guanine nucleotide exchange factors” (Children's Hospital Medical Center, priority 2013, dated 2018).
Some entries share one result that the patent states for a list of compounds.

System: NIH 3T3 / Swiss 3T3 cells
Assay: Immunofluorescence of actin stress fiber and focal complex
Format: cell-based
Details: NIH 3T3 cells, LPA (20 ng/mL) stimulated; combination: concentration of each inhibitor

Structure (SMILES): N[C@H](Cc1c[nH]c2ccccc12)C(=O)N/N=C/c1ccc2nccnc2c1 [Compound G04, (2R)-2-amino-3-(1Hindol-3-yl)-N′-[(1E)-quinoxalin-6-ylmethylidene]propanehydrazide]
- concentration to completely abolish RhoA-mediated cell stress fiber formation: over 10 μM
